Source: US7375243B2, “Method for preparation of amino acid chelate” (MD Bioalpha Co., Ltd., priority 2002, dated 2008)

Assay: Test of properties (taste and appearance) of beverage with chelate added
Conditions: chelate added to MIEROFIBER at 1% by weight; aggregate of ten specialists, each 1-5

**Q.** For “Seaweed Calcium-Glutamic Acid Chelate [EXAMPLE 1]”, which “Appearance: Clearness (aggregate value)” value is on record?
**A.** 47

**Q.** What about the “Appearance: Color (aggregate value)” value of the same substance?
**A.** 48

**Q.** And the “Overall evaluation (aggregate value)” value?
**A.** 47

**Q.** What about the “Taste: Glutamate taste (aggregate value)” value of the same substance?
**A.** 12

**Q.** And the “Taste: Sour taste (aggregate value)” value?
**A.** 11
